{
  "source": "the supplement of paper PMC12889115",
  "test_system": "Salmonella enterica serovar Typhimurium SL1344",
  "experiment": "bacterial growth OD600 after 18 h with compound and polymyxin B; higher = more bacterial growth (less inhibition)",
  "settings": "50 µM, Mueller-Hinton broth",
  "note": "Some of the results follow. These are raw signals, not scaled to a control.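 In the initial screen, polymyxin B was used at a concentration that permeabilizes Salmonella's outer membrane but not its inner membrane. Maximum growth was set by DMSO wells with or without polymyxin B. Since plates varied, data were ranked per plate, and compounds giving the lowest OD600 advanced as hits.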",
  "data": [
    {"smiles": "c1ccc(CCC2CCCCN2Cc2nc(-c3ccc4c(c3)OCO4)no2)nc1", "note": "(centres undefined)", "values": [
      {"measurement": "bacterial growth OD600", "setting": "polymyxin B 1 µg/mL", "result": 0.078}
    ]},
    {"smiles": "O=C(Nc1ccc(-n2cccn2)cc1)C1CCCCN1Cc1cccnc1", "note": "(centres undefined)", "values": [
      {"measurement": "bacterial growth OD600", "setting": "polymyxin B 1 µg/mL", "result": 1.05}
    ]},
    {"smiles": "COCCCNc1nc2nonc2nc1NCc1ccc(Cl)s1", "values": [
      {"measurement": "bacterial growth OD600", "setting": "polymyxin B 0.75 µg/mL", "result": -0.002}
    ]},
    {"smiles": "COc1ccc(F)c(CN2CCC(n3nccc3NC(=O)C3CCCC3)CC2)c1", "values": [
      {"measurement": "bacterial growth OD600", "setting": "polymyxin B 0.75 µg/mL", "result": 0.706}
    ]},
    {"smiles": "COCCC1CCCCN1C(=O)CCc1nnc(CCc2ccccc2OC)o1", "note": "(centres undefined)", "values": [
      {"measurement": "bacterial growth OD600", "setting": "polymyxin B 0.75 µg/mL", "result": 0.84}
    ]},
    {"smiles": "CCn1cc(CNC2CCCc3nc(-c4cccnc4)ncc32)cn1", "note": "(centres undefined)", "values": [
      {"measurement": "bacterial growth OD600", "setting": "polymyxin B 1 µg/mL", "result": 0.925}
    ]},
    {"smiles": "CCCn1cc(CN2CCC(CO)(CCCc3ccccc3)CC2)c(C)n1", "values": [
      {"measurement": "bacterial growth OD600", "setting": "polymyxin B 0.75 µg/mL", "result": 0.86}
    ]},
    {"smiles": "COc1ccccc1CC(=O)N(C)CC1CCCN(CCc2ccc(F)cc2)C1", "note": "(centres undefined)", "values": [
      {"measurement": "bacterial growth OD600", "setting": "polymyxin B 1 µg/mL", "result": 0.722}
    ]},
    {"smiles": "O=C(NC1CCCCCCC1)C1CCCN(C2CCN(C(=O)C3CC3)CC2)C1", "note": "(centres undefined)", "values": [
      {"measurement": "bacterial growth OD600", "setting": "polymyxin B 0.75 µg/mL", "result": 0.607}
    ]},
    {"smiles": "CCOc1ccccc1N1CCN(C(=O)CCC2(Cc3ccc(F)c(OC)c3)CCC(=O)N2)CC1", "note": "(centres undefined)", "values": [
      {"measurement": "bacterial growth OD600", "setting": "polymyxin B 0.75 µg/mL", "result": 0.81}
    ]},
    {"smiles": "O=C(C1CCCC1)N1CCC(C2CCN(Cc3cccnc3)CC2)C1", "note": "(centres undefined)", "values": [
      {"measurement": "bacterial growth OD600", "setting": "polymyxin B 0.75 µg/mL", "result": 0.987}
    ]},
    {"smiles": "Fc1ccc(CC2CCN(Cc3nc(COc4ccccc4)no3)CC2)cc1", "values": [
      {"measurement": "bacterial growth OD600", "setting": "polymyxin B 1 µg/mL", "result": 0.825}
    ]},
    {"smiles": "CN(CC1(O)CCCN(Cc2cccc(F)c2F)C1=O)C1CCCCC1", "note": "(centres undefined)", "values": [
      {"measurement": "bacterial growth OD600", "setting": "polymyxin B 1 µg/mL", "result": 0.856}
    ]},
    {"smiles": "CCN(CC)C(=O)C1CCCN(Cc2ccc3c(c2)CN(Cc2ccc4nsnc4c2)CCO3)C1", "note": "(centres undefined)", "values": [
      {"measurement": "bacterial growth OD600", "setting": "polymyxin B 0.75 µg/mL", "result": 0.807}
    ]},
    {"smiles": "CC(CN1C(=O)CCC1CCNCc1cc2c(cc1Cl)OCO2)c1ccccc1", "note": "(centres undefined)", "values": [
      {"measurement": "bacterial growth OD600", "setting": "polymyxin B 0.75 µg/mL", "result": 0.795}
    ]},
    {"smiles": "C=C(C)CNc1ccc(C(=O)N2CCCCC2CCn2cccn2)cn1", "note": "(centres undefined)", "values": [
      {"measurement": "bacterial growth OD600", "setting": "polymyxin B 1 µg/mL", "result": 0.503}
    ]},
    {"smiles": "CC(=O)c1cc(C(=O)N2CCC(CCC(=O)Nc3ccccc3)CC2)cs1", "values": [
      {"measurement": "bacterial growth OD600", "setting": "polymyxin B 1 µg/mL", "result": 0.915}
    ]},
    {"smiles": "O=C(NCc1c[nH]nc1-c1ccccc1)C1CCC(=O)N(CCCc2ccccc2)C1", "note": "(centres undefined)", "values": [
      {"measurement": "bacterial growth OD600", "setting": "polymyxin B 1 µg/mL", "result": 0.852}
    ]},
    {"smiles": "COc1cccc(CN2CCCC3(CCN(C(=O)c4ccc(OC)nc4OC)C3)C2)c1", "note": "(centres undefined)", "values": [
      {"measurement": "bacterial growth OD600", "setting": "polymyxin B 1 µg/mL", "result": 0.931}
    ]}
  ]
}
